# Primary screen of a compound library

Data taken from ChEMBL document CHEMBL3988442, “University of Dundee, Small-Polar-MMV Screening Library” (2021).

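Whole-cell assay for inhibitors of Mycobacterium tuberculosis growth, labelled Cornell in the record; the read-out is not stated. The concentration is filed as 10 mM, unlikely as a test dose, so the dose is not known. The record gives no direction; compounds strong in two other growth screens of this library score well above the rest, so higher reads as stronger inhibition. About 53,000 compounds were tested under these conditions; 1.7% (about 900) showed 50% or more at least once.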

Each number is a percent effect as filed.
How 0% and 100% were set is not recorded. Most values in the screen are low, and negative values occur.
Compounds were drawn at random from those tested, without regard to their results.

Result for Cn1ccnc1CN1CCc2ncnc(N3CCCC(C#N)C3)c2CC1 (stereo not shown) was -4.298%.
Result for CC(C)C(=O)N(C)Cc1nnc2n1CCCCC2 was -47.36%.
Result for [H][C@]12CN(Cc3c[nH]nc3-c3ccccc3)C[C@]1([H])N(CCOC)C(=O)CO2 was -3.966%.
Result for Cc1noc(C(C)C)c1C(=O)NCCCOC(C)C was 20.7%.
Result for O=C(COC1CCCC1)N1CCCC1c1noc(C2CC2)n1 (stereo not shown) was 4.352%.
Result for CC(=O)NCCC1CCCCN1S(=O)(=O)c1cccc(F)c1 (stereo not shown) was -15.61%.
Result for CCc1cccc2cc(CNCCOC)c(=O)[nH]c12 was -44%.
Result for CCn1cc(S(=O)(=O)Nc2ccc3[nH]c(C4CCC4)nc3c2)cn1 was -15.28%.
Result for CN(C)Cc1ccnc(NS(=O)(=O)Cc2cccc(F)c2)c1 was 46.25%.
Result for [H][C@@]12C[C@H](C)O[C@]1([H])CCN(C(=O)c1cccc3c1OCCO3)C2 was -20.33%.
Result for Cc1cnc(CN(C)C2CCN(Cc3cnc(C)s3)C2)o1 (stereo not shown) was -34.22%.
Result for CCc1csc(C2CCCN(C(=O)c3ccc(=O)n(C)n3)C2)n1 (stereo not shown) was 28%.
Result for COc1ccc(OC)c(CCNC(=O)CCC2CCCO2)c1 (stereo not shown) was 6.567%.
Result for [H][C@@]12CCN(Cc3ccco3)C[C@@]1([H])O[C@H](c1ccnc(C)n1)C2 was 25.93%.
Result for O=C1NCC2(CCCN(Cc3cccnc3)C2)Oc2ccccc21 (stereo not shown) was 16.07%.
Result for CNC(=O)NC(=O)CN1CCN(CC(F)(F)F)CC1(C)C was 23.01%.
Result for COc1ccccc1C1(CNc2snc(Cl)c2C#N)CCOCC1 was -14.98%.
Result for Cc1nn(CC(=O)N2CCN(c3ccncc3)CC2)c(C)c1Cl was 1.786%.
Result for COc1ccccc1-c1cc(NC(=O)CC2CCS(=O)(=O)C2)[nH]n1 (stereo not shown) was 10.3%.
Result for O=C(c1ccco1)N1CCOCC2(C1)CN(c1ccccn1)C(=O)CO2 (stereo not shown) was -39.56%.
Result for c1ccc(C2CCN(c3cncc(-n4cccn4)n3)CC2)cc1 was 25.96%.
Result for Cc1cc(CN2CCOC(CN(C)C)C2)no1 (stereo not shown) was 17.06%.
Result for CN(CC(=O)Nc1cnn(-c2ccccc2S(C)(=O)=O)c1)C1CC1 was 10.37%.
Result for CN(C)[C@@H]1CO[C@H](CNC(=O)C2CCCC2)[C@H]1O was -24.2%.
Result for [H][C@]12CC[C@@]3(N=C(CC)N(CC)C3=O)[C@@]1([H])CN(C(=O)Nc1ccccc1)C2 was 8.398%.
Result for O=C(O)C(F)(F)F.c1csc(CN2CCc3ncnc(C4CCOC4)c3CC2)n1 (stereo not shown) was 18.04%.
Result for O=C(COc1ccc(-n2cccn2)nn1)NC1CCCCC1 was -18.79%.
Result for Cc1nn(CCN2CCSCC2)cc1CNCc1ccccn1 was -13.4%.
Result for Cc1cc(C)n(C2CCCN(C(=O)c3cccc(F)c3F)C2)n1 (stereo not shown) was -12.15%.
Result for Cc1nc(N2CCC(C(O)c3nccn3C)CC2)c2cccnc2n1 (stereo not shown) was 17.6%.
Result for Cc1cc2c(cc1CN1CCCCC1CCn1ccnc1C)OCO2 (stereo not shown) was -17.39%.
Result for CC(Cn1cccn1)NCc1ccc(OCc2ccncc2)cc1 (stereo not shown) was -19.65%.
Result for CCN(CC)S(=O)(=O)c1csc(C(=O)N2CCC(C(N)=O)CC2)c1 was 6.848%.
Result for Cc1nc(NCc2ccc(F)cc2)cc(C2CCCN2)n1.Cl (stereo not shown) was -94.67%.
Result for Cc1sc(C(=O)NS(C)(=O)=O)cc1-c1ccc(F)cc1 was 12.09%.
Result for O=C(NCc1cccnc1N1CCc2ccccc2C1)c1cnc[nH]1 was -22.95%.
Result for Cc1c(C(=O)NCC(C)C)nnn1-c1cccc2c1CCN(CCO)C2 was 2.655%.
Result for Cc1ccc(Cn2c(=O)[nH]c3cccnc3c2=O)cc1 was -1.181%.
Result for Cc1ccc(S(=O)(=O)Nc2ccc(=O)n(C)c2)cc1 was -1.755%.
Result for Cc1ccccc1OC1(C(=O)O)CCN(C(=O)CCc2ccco2)CC1 was -1.057%.
Result for c1ccc(Cn2cc(CNc3ncnc4c3CCNCC4)cn2)cc1 was -15.37%.
Result for Cc1c(C(=O)NCCC2CN(C)CCO2)n(C)c2c(C)cccc12 (stereo not shown) was -3.777%.
Result for Cc1ccoc1C(=O)N1CCn2nnc(COc3cccnc3)c2C1.O=C(O)C(F)(F)F was 4.013%.
Result for Cc1cccc2[nH]c(COCC(=O)N3CCCn4cncc4C3)nc12 was 11.36%.
Result for [H][C@@]12CCN(S(=O)(=O)CC)C[C@]1(c1nnc(C)o1)CCO2 was -53.33%.
Result for CCS(=O)(=O)CCN1CCCC1c1noc(C2CC2)n1 (stereo not shown) was -38.99%.
Result for CC(C)c1nnsc1CNC(=O)C1CCN(C(=O)C2CC2)CC1 was -4.558%.
Result for Cc1cnn(CCNCC(O)c2ccc(C(F)(F)F)cc2)c1 (stereo not shown) was 34.33%.
Result for O=C(c1c2c(N3CCOCC3)ncnc2n2ccccc12)N1CCCC1 was -21.92%.
Result for CN(c1ccc(CNc2ccc(Cl)cn2)cc1)S(C)(=O)=O was 21.91%.

The last 5 entries again:

Compound,effect
CCS(=O)(=O)CCN1CCCC1c1noc(C2CC2)n1 (stereo not shown),-38.99
CC(C)c1nnsc1CNC(=O)C1CCN(C(=O)C2CC2)CC1,-4.558
Cc1cnn(CCNCC(O)c2ccc(C(F)(F)F)cc2)c1 (stereo not shown),34.33
O=C(c1c2c(N3CCOCC3)ncnc2n2ccccc12)N1CCCC1,-21.92
CN(c1ccc(CNc2ccc(Cl)cn2)cc1)S(C)(=O)=O,21.91